Data from article PMC8400830.
No constants are given. Whether binding was seen depends on the method and setting. In cells and extracts the contact can be indirect. Some entries that bind do so weakly or less than the wild type.

Biological target: heterogeneous nuclear ribonucleoprotein K (hnRNPK) (human (endogenous in CRC cell lines)) (UniProt P61978)
Assay: co-IP; IP/Co-IP Kit (Thermo Fisher Scientific), endogenous proteins in CRC cell lysates; cells with circ-GALNT16 knockdown or overexpression, SENP2 knockdown, with or without UV exposure (6 h)

B1: SUMO-specific peptidase 2 (SENP2) (enzyme, UniProt Q9HC62 1-589)
chain: MYRWLVRILGTIFRFCDRSVPPARALLKRRRSDSTLFSTVDTDEIPAKRPRLDCFIHQVKNSLYNAASLFGFPFQLTTKPMVTSACNGTRNVAPSGEVFSNSSSCELTGSGSWNNMLKLGNKSPNGISDYPKIRVTVTRDQPRRVLPSFGFTLNSEGCNRRPGGRRHSKGNPESSLMWKPQEQAVTEMISEESGKGLRRPHCTVEEGVQKEEREKYRKLLERLKESGHGNSVCPVTSNYHSSQRSQMDTLKTKGWGEEQNHGVKTTQFVPKQYRLVETRGPLCSLRSEKRCSKGKITDTETMVGIRFENESRRGYQLEPDLSEEVSARLRLGSGSNGLLRRKVSIIETKEKNCSGKERDRRTDDLLELTEDMEKEISNALGHGPQDEILSSAFKLRITRGDIQTLKNYHWLNDEVINFYMNLLVERNKKQGYPALHVFSTFFYPKLKSGGYQAVKRWTKGVNLFEQEIILVPIHRKVHWSLVVIDLRKKCLKYLDSMGQKGHRICEILLQYLQDESKTKRNSDLNLLEWTHHSMKPHEIPQQLNGSDCGMFTCKYADYISRDKPITFTQHQMPLFRKKMVWEILHQQLL
binding: binds
